Experimental findings from PubChem BioAssay AID1487 (National Center for Advancing Translational Sciences (NCATS), 2009) are described below.

Some of the results follow. Shown are side measurements of this screen, not its main read-out; they come without a call. Most of these compounds were active or inconclusive in the main read-out, so they are no random draw. Potencies come from curve fits of mixed quality, noted in brackets.

The nature of the assay: qHTS Assay for Modulators of Lamin A Splicing. The following applies: HeLa LMNA splicing GFP/RFP minigene ratio, 48 h. Put shortly:
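S3 HeLa cells stably expressing lamin A-EGFP splicing minigene plus DsRed2, 600 cells/well, 48 h compound exposure at 37C. Laser-scanning cytometry; analysed as GFP (500-530 nm)/RFP (575-640 nm) total intensity ratio; 0.5% DMSO vehicle.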
In general terms: qHTS replaces the single test concentration by a dilution series.

Where [1] appears, read: measured here: GFP splicing reporter channel.
[2] abbreviates: measured here: RFP viability control channel.

What is called AC50 is the concentration at which the activity in the assay is half-maximal.

With `CCn1c2ccccc2c2cc(NC(=S)N3CCOCC3)ccc21`, the AC50 under setting [1] was 35.5 µM [falling, single point].

For the compound `Cc1nn(C(=O)Cn2cc([N+](=O)[O-])cn2)c(C)c1Cl`, the AC50 under setting [2] is 0.00355 µM [rising, full curve, poor fit].

`COc1cc(CCC(=O)Nc2cccc(S(=O)(=O)N(C)C)c2)cc(OC)c1OC`: the AC50 runs as follows: under setting [1], 11.2 µM [rising, partial curve]; under setting [2], 14.1 µM [rising, single point].

`COc1ccc(Cl)cc1NC(=O)C(C)N(C)Cc1cccc(Cl)c1Cl` (stereo not given): under setting [2], the AC50 was 35.5 µM [rising, single point].

For the compound `COc1ccc(C(=O)CCNc2ccc3c(c2)OCCO3)cc1`, the AC50 under setting [2] was 0.447 µM [falling, partial curve, poor fit].

Consider `COc1cc([N+](=O)[O-])cc(/C=N/NC(=O)C(C)Nc2ccccc2C)c1O` (stereo not given), for which, under setting [2], the half-maximal activity concentration (AC50) was 22.4 µM [rising, single point].

As for `CC(=O)OC(C(=O)Nc1ccccc1)C(C)S(=O)(=O)c1ccccc1` (stereo not given), the AC50 under setting [2] was 12.6 µM [rising, partial curve].

In the case of `CCn1c(=O)cc(SCC(=O)NCCCN2CCN(c3ccc(F)cc3)CC2)c2ccccc21`, the AC50 runs as follows: under setting [1], 17.8 µM [rising, partial curve]; under setting [2], 35.5 µM [rising, single point].

As to `N#CC1=C(Nc2ccc(Br)cc2)CCC1`, the AC50 under setting [2] was 0.0282 µM [falling, full curve, poor fit].

As for `Cc1cccc(NC(=O)COC(=O)c2ccccc2-c2nc3ccccc3s2)c1C`, the AC50 under setting [2] was 22.4 µM [rising, single point].

In the case of `CCC(=O)N1CCc2cc(CNC(=O)Cc3ccc(F)cc3)ccc21`, the concentration at half-maximal activity (AC50) under setting [1] was 14.1 µM [rising, single point].

Regarding `O=C(Nc1cc(N2CCOCC2)ncn1)NC1(C(F)(F)F)Oc2ccc(Cl)cc2O1` (stereo not given), the AC50 under setting [2] is 17.8 µM [rising, partial curve].

Take `COc1ccc(CCNC(=O)C(C)Sc2ccc(C)cc2)cc1OC` (stereo not given): the AC50 under setting [2] was 17.8 µM [rising, partial curve].

Turning to `CC(=O)Nc1cccc(/C(C)=N\NC(=O)c2ccc(Cn3nc([N+](=O)[O-])c(Cl)c3C)o2)c1`, the AC50 under setting [2] is 6.31 µM [rising, partial curve].

`CCOC(=O)c1cnc(SCC(=O)N2CCN(c3ccccc3)CC2)nc1N`: the concentration at half-maximal activity (AC50) under setting [2] is 3.55 µM [rising, partial curve, poor fit].

For `Cc1cccc(OCCn2c(NC(=O)c3ccco3)nc3ccccc32)c1`, the AC50 under setting [2] is 17.8 µM [rising, single point].

As for `CCCCC(=O)N1CCN(c2ccc(OC)cc2[N+](=O)[O-])CC1`, under setting [2], the concentration at half-maximal activity (AC50) was 15.8 µM [rising, single point].

On to `O=C1c2ccccc2NC(c2ccc(-c3cccc([N+](=O)[O-])c3)o2)N1O` (stereo not given), for which the AC50 under setting [1] was 35.5 µM [rising, single point] and the half-maximal activity concentration (AC50) under setting [2] was 35.5 µM [rising, single point].

`Cc1ccc(NC(=O)c2cc(S(=O)(=O)NC3CCCCC3)ccc2F)cc1Cl`: the concentration at half-maximal activity (AC50) is 0.0447 µM [falling, full curve, poor fit] under setting [1] and 0.0224 µM [falling, full curve] under setting [2].

Regarding `O=C(N/N=C/c1ccc(-c2cccc(C(F)(F)F)c2)o1)c1ccccc1Br`, the concentration at half-maximal activity (AC50) was 8.91 µM [falling, single point] under setting [1] and 20 µM [falling, single point] under setting [2].

In the case of `Cc1ccc(S(=O)(=O)N2c3ccccc3CC2C)cc1` (stereo not given), the AC50 under setting [1] was 3.16 µM [rising, partial curve, poor fit] and the AC50 under setting [2] is 2.51 µM [rising, partial curve].

`COc1cccc(CN2CCC(N(CCc3ccccc3)Cc3ccccc3)CC2)c1OC`: the AC50 was 7.94 µM [rising, partial curve] under setting [1] and 11.2 µM [rising, partial curve] under setting [2].

Turning to `CCOC(=O)c1ccc2[nH]c(C)c(CCC(C)=O)c(=O)c2c1`, the concentration at half-maximal activity (AC50) under setting [1] was 0.355 µM [falling, full curve, poor fit] and the concentration at half-maximal activity (AC50) under setting [2] was 0.00562 µM [falling, full curve, poor fit].

Turning to `CC(=O)O[C@]1(C(C)=O)CC[C@H]2C3C=C(Cl)C4=CC(=O)[C@@H]5C[C@H]5[C@]4(C)C3CC[C@@]21C` (stereo not given in full), the AC50 reads like this: under setting [1], 0.398 µM [falling, full curve, poor fit]; under setting [2], 0.000794 µM [falling, full curve, poor fit].

As to `O=C(c1sc2ccccc2c1Cl)N1CCN(c2ncccn2)CC1`, the AC50 under setting [2] is 35.5 µM [rising, single point].

With `Cn1c(=O)oc2cc(S(=O)(=O)N3CCCC(C(=O)N4CCc5ccccc5C4)C3)ccc21` (stereo not given), under setting [2], the half-maximal activity concentration (AC50) is 12.6 µM [rising, partial curve].

With `Cc1ccc(OCCNC(=O)c2cc(C(=O)NCCOc3ccc(C)cc3)cc([N+](=O)[O-])c2)cc1`, the AC50 was 22.4 µM [rising, single point] under setting [1] and 35.5 µM [rising, single point] under setting [2].

Turning to `COc1c(Br)cc2c(C)c(C(=O)O)oc2c1Br`, the concentration at half-maximal activity (AC50) under setting [1] is 14.1 µM [rising, single point].

For the compound `O=C(Oc1ccc2ccccc2c1Cl)N1CCCCCC1`, the AC50 under setting [2] was 17.8 µM [rising, partial curve, poor fit].

For `C[n+]1ccccc1COc1ccc(C(C)(C)C)cc1`, the AC50 by setting is: under setting [1], 11.2 µM [rising, partial curve, poor fit]; under setting [2], 12.6 µM [rising, partial curve].

Regarding `OC(CON=C1c2ccccc2-c2ccccc21)CN1CCNCC1` (stereo not given), the concentration at half-maximal activity (AC50) under setting [2] was 31.6 µM [rising, single point].

For `CC(=O)Nc1ccc(C(=O)Nc2cc(C(F)(F)F)ccc2-n2cnc3ccccc32)cc1`, the AC50 was 12.6 µM [rising, single point] under setting [1] and 17.8 µM [rising, single point] under setting [2].

As for `CC(C)(C)c1cc(CN2CCN(CCO)CC2)cc(C(C)(C)C)c1O`, the AC50 under setting [2] is 11.2 µM [rising, partial curve].

`O=S(=O)(NCC(c1ccco1)S(=O)(=O)c1cccs1)c1ccc(Cl)cc1` (stereo not given): under setting [2], the AC50 was 8.91 µM [rising, partial curve].

In the case of `CC(=O)c1cccc(NS(=O)(=O)c2cc(-c3cnc(C4CC4)o3)ccc2C)c1`, the concentration at half-maximal activity (AC50) under setting [2] is 2.51 µM [rising, full curve, poor fit].

As for `COc1cccc(C(=O)Nc2nc(-c3ccc4c(c3)OCO4)cs2)c1`, under setting [2], the concentration at half-maximal activity (AC50) was 12.6 µM [rising, partial curve].

Consider `N=C1/C(=C/c2cccn2CCOc2ccccc2)C(=O)N=C2SC=C(c3ccccc3)N12`, for which the AC50 under setting [2] is 17.8 µM [rising, single point].

For the compound `COc1ccc(CNc2nc(-c3ccccc3CN(C)C)nc3ccccc23)c(OC)c1`, the AC50 under setting [1] is 35.5 µM [rising, single point] and the AC50 under setting [2] was 25.1 µM [rising, single point].

In the case of `CN(C)S(=O)(=O)N1CCN(c2ccc([N+](=O)[O-])c(N3CCOCC3)c2)CC1`, the concentration at half-maximal activity (AC50) runs as follows: under setting [1], 35.5 µM [falling, partial curve, poor fit]; under setting [2], 35.5 µM [falling, partial curve, poor fit].

On to `CN(Cc1nccn1C)C(=O)CCc1nnc(CCC2CCCCC2)o1`, for which the AC50 is 0.0562 µM [falling, full curve, poor fit] under setting [1] and 0.00447 µM [falling, full curve, poor fit] under setting [2].

Take `Cc1cc(C(=O)CN2C(=O)CN(C)C2=O)c(C)n1-c1cccc(S(=O)(=O)N2CCOCC2)c1`: the AC50 under setting [1] was 20 µM [falling, partial curve, poor fit].

Take `CC[n+]1c(/C=C/Nc2ccccc2)oc2ccccc21`: the concentration at half-maximal activity (AC50) under setting [1] is 17.8 µM [rising, single point].

`O=C(Nc1nc(COc2ccccc2)cs1)C1CCC1`: the concentration at half-maximal activity (AC50) by setting is: under setting [1], 20 µM [rising, single point]; under setting [2], 22.4 µM [rising, partial curve].

As for `CCCCN(CC)CCNC(=O)C1CCCN(c2ncnc3onc(C)c23)C1` (stereo not given), the AC50 under setting [1] is 0.0316 µM [falling, full curve, poor fit].

For the compound `CCC(=O)N1c2ccccc2CC1C(=O)NCc1ccc(N(C)C)cc1` (stereo not given), the AC50 under setting [1] was 1.78 µM [rising, partial curve].

Consider `O=C(N/N=C/c1cc([N+](=O)[O-])ccc1Cl)c1cnccn1`, for which, under setting [2], the concentration at half-maximal activity (AC50) was 6.31 µM [falling, single point].

As to `FC(F)(F)c1cccc(-c2nn[nH]n2)c1`, under setting [1], the half-maximal activity concentration (AC50) is 0.0141 µM [rising, full curve, poor fit].

For `CCc1ccc2c(COn3nnc4ccc(S(=O)(=O)N(C)C)cc43)cc(=O)oc2c1`, the AC50 under setting [1] is 35.5 µM [rising, single point].

In the case of `CCOC(=O)c1cc(-c2ccc(F)cc2)n(CCC(=O)Nc2nc3ccc(OC)cc3s2)c1C`, the AC50 was 5.62 µM [falling, single point] under setting [1] and 5.62 µM [falling, single point] under setting [2].

Take `N#Cc1c(-c2ccccc2Cl)cc(-c2ccccc2)nc1Br`: the half-maximal activity concentration (AC50) by setting is: under setting [1], 22.4 µM [rising, single point]; under setting [2], 35.5 µM [rising, single point].

For `Cn1c(=O)oc2cc(S(=O)(=O)CCC(=O)NCCc3ccc(Cl)cc3)ccc21`, under setting [2], the concentration at half-maximal activity (AC50) is 12.6 µM [rising, partial curve].

Take `COCCN1C(=O)CS/C1=C(/C#N)C(=O)NCc1ccco1`: the AC50 under setting [2] is 28.2 µM [rising, single point].

In the case of `CCC(=O)Nc1cccc(C(=O)/C=C/c2cccs2)c1`, the AC50 by setting is: under setting [1], 3.98 µM [falling, partial curve]; under setting [2], 20 µM [falling, single point].

In the case of `O=C(Nc1nccs1)c1ccc(CSc2nnnn2-c2ccccc2)cc1`, the concentration at half-maximal activity (AC50) under setting [2] is 31.6 µM [rising, single point].

For the compound `Nc1cccc2cnccc12`, the AC50 reads like this: under setting [1], 0.631 µM [falling, full curve, poor fit]; under setting [2], 0.794 µM [falling, full curve].
